The supplement of paper PMC12823440, “Inhibitors supercharge kinase turnover through native proteolytic circuits” (Nature, 2025)
The list shows a part of the results. The calls rarely recur for the same compound in another form.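 Kinases, fused to nanoluciferase, were expressed in K562 cells; luminescence was measured every 4 h from 2 to 18 h as percent of control (DMSO = 100%, positive control = 0%). A time point is decreased if signal falls significantly (2 sigma). Hits were called by the authors by a rule that is not shown; the count of time points alone does not decide it.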

Protein sequences, listed by entry. Tags and fused reporters are not part of them. Lines headed by an entry give the natural chain unless they say otherwise; changes in a name come on top.
UniProt P29597: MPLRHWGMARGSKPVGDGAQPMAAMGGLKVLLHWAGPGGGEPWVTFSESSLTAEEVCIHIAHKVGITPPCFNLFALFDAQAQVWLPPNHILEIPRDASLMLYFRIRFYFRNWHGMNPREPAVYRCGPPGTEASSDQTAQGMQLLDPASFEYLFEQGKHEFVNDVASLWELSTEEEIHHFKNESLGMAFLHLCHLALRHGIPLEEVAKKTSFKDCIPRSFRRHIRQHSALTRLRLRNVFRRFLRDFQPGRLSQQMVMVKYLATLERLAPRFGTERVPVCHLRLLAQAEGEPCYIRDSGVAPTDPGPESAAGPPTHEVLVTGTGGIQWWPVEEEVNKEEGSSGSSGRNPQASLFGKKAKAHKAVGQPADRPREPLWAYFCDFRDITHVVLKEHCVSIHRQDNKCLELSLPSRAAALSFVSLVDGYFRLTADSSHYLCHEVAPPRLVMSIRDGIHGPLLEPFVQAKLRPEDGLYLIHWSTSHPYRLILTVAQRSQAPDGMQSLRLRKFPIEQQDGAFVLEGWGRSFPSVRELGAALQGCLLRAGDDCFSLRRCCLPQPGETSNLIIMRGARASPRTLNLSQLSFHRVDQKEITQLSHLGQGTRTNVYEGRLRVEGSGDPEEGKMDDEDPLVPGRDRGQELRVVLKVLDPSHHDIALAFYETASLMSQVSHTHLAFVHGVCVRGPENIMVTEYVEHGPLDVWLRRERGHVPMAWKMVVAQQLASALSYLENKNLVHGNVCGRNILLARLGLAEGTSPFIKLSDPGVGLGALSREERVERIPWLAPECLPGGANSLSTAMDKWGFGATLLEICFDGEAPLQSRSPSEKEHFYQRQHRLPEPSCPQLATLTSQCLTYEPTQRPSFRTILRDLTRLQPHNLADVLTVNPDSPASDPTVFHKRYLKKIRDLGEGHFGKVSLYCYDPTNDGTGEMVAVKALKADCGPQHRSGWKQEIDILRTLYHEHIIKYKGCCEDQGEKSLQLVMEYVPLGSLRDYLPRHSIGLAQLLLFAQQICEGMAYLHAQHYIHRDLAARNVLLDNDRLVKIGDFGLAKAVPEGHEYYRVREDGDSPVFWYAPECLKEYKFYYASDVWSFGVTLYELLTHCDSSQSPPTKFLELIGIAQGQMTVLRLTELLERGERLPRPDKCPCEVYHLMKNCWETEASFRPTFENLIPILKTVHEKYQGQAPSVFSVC
UniProt P15056, whole entry, looked up: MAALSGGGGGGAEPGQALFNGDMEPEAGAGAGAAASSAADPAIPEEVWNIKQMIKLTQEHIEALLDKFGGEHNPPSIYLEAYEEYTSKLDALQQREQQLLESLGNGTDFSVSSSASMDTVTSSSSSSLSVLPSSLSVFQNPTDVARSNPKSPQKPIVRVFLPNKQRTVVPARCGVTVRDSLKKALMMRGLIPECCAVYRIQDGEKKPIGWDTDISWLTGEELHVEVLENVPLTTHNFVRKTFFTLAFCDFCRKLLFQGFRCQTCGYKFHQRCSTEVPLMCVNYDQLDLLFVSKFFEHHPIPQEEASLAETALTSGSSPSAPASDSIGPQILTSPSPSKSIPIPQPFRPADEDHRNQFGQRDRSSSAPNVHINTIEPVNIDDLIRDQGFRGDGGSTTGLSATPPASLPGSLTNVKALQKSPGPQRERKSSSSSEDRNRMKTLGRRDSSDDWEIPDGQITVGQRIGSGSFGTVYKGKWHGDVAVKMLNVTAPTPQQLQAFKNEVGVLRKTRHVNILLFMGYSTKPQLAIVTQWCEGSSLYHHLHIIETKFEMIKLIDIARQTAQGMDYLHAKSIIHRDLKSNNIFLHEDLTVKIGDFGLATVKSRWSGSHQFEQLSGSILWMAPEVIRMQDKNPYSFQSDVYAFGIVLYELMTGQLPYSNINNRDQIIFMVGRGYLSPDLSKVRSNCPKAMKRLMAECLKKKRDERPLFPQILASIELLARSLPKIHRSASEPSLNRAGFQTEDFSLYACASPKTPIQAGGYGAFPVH
UniProt P49840: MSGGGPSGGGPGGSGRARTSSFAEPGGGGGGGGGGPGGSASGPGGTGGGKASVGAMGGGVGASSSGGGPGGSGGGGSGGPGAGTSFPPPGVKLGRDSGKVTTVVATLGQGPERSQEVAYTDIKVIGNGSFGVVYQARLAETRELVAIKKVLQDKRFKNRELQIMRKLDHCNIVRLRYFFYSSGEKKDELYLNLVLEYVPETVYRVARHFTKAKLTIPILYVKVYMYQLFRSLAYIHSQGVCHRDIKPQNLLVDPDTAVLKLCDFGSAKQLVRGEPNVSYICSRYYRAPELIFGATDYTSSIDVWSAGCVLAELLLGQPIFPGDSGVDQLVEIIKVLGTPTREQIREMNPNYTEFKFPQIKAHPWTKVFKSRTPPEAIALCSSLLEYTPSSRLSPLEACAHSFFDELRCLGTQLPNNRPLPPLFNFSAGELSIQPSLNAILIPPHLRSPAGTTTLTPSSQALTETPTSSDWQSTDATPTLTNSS
UniProt O96013: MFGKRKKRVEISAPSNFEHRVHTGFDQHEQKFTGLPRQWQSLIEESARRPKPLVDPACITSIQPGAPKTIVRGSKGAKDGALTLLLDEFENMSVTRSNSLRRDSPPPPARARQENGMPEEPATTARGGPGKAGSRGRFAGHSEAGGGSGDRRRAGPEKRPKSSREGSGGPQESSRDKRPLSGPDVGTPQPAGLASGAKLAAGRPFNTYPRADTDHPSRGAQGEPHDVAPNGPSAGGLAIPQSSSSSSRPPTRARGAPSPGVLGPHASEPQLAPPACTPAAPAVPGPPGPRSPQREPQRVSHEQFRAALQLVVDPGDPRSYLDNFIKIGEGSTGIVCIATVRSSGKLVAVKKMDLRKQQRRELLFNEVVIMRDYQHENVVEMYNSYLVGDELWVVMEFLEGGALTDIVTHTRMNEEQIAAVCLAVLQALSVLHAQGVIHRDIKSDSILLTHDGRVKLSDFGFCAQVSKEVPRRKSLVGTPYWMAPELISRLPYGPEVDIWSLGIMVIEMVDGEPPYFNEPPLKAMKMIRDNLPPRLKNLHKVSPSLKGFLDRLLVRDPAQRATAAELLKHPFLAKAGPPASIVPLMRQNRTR
UniProt Q15303, whole entry R711C: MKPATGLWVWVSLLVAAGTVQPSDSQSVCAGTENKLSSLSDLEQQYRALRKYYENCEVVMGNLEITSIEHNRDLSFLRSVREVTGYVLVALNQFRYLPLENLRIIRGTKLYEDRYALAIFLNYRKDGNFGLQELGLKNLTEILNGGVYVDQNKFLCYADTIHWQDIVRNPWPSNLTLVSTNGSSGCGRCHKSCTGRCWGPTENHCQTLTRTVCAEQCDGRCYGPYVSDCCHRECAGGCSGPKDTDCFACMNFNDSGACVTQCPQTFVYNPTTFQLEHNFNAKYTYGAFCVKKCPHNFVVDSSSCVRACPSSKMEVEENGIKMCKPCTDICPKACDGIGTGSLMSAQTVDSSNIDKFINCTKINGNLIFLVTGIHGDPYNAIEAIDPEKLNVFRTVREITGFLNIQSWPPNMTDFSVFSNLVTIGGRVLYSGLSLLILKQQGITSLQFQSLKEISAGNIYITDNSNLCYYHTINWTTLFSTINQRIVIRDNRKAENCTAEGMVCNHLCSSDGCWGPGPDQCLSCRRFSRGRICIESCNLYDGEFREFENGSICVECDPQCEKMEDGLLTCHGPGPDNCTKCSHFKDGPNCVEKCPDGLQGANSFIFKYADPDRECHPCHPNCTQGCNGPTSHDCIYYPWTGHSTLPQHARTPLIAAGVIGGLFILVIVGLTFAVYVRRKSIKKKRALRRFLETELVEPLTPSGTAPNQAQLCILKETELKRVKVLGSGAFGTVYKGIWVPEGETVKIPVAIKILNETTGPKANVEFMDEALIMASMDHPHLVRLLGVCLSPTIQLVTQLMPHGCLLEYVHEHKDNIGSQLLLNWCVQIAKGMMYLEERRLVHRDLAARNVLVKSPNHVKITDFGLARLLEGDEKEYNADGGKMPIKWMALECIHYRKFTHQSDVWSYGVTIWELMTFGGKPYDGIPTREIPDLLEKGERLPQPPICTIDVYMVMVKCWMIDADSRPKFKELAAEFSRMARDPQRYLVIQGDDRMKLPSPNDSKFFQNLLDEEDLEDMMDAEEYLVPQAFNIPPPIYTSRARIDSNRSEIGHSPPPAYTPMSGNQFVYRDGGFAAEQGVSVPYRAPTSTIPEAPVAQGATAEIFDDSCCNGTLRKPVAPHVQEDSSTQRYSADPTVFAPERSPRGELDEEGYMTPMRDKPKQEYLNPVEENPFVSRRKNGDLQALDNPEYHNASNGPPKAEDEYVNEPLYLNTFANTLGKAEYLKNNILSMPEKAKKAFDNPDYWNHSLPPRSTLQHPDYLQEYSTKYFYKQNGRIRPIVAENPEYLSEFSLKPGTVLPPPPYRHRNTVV
UniProt P51451: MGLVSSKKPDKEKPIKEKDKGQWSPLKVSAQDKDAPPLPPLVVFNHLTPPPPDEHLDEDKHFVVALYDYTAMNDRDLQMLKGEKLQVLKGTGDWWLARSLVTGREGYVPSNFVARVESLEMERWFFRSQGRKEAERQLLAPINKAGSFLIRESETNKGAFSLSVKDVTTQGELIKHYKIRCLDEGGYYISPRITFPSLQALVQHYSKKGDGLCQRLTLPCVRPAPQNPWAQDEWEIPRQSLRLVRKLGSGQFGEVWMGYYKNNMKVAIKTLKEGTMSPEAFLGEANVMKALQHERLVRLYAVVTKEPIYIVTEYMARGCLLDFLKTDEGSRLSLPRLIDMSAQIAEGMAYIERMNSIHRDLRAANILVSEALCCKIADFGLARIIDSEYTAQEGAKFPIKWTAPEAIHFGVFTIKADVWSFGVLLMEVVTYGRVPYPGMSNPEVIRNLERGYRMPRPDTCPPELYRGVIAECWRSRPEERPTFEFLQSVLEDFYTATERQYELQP
UniProt P22607, whole entry, looked up: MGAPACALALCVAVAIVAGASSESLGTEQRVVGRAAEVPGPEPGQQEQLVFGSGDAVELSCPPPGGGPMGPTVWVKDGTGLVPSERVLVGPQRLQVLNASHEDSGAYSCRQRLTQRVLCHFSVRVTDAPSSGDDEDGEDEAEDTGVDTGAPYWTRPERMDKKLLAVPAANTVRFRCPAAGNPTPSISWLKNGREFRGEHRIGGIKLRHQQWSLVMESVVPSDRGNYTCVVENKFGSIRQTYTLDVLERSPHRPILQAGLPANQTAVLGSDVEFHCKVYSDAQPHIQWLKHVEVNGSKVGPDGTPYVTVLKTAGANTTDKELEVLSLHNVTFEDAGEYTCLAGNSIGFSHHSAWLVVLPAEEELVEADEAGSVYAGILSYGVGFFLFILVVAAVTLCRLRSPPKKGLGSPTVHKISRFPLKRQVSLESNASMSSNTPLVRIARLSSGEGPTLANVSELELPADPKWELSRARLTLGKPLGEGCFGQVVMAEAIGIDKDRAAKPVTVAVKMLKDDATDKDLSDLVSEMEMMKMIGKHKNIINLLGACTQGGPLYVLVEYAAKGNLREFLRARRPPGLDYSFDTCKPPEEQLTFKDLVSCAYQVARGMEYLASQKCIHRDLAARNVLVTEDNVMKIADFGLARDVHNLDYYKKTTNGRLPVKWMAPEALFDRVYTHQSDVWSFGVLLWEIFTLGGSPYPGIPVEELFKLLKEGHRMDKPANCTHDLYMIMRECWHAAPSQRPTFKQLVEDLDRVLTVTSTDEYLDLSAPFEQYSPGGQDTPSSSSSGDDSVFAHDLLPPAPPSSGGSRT
UniProt Q08345: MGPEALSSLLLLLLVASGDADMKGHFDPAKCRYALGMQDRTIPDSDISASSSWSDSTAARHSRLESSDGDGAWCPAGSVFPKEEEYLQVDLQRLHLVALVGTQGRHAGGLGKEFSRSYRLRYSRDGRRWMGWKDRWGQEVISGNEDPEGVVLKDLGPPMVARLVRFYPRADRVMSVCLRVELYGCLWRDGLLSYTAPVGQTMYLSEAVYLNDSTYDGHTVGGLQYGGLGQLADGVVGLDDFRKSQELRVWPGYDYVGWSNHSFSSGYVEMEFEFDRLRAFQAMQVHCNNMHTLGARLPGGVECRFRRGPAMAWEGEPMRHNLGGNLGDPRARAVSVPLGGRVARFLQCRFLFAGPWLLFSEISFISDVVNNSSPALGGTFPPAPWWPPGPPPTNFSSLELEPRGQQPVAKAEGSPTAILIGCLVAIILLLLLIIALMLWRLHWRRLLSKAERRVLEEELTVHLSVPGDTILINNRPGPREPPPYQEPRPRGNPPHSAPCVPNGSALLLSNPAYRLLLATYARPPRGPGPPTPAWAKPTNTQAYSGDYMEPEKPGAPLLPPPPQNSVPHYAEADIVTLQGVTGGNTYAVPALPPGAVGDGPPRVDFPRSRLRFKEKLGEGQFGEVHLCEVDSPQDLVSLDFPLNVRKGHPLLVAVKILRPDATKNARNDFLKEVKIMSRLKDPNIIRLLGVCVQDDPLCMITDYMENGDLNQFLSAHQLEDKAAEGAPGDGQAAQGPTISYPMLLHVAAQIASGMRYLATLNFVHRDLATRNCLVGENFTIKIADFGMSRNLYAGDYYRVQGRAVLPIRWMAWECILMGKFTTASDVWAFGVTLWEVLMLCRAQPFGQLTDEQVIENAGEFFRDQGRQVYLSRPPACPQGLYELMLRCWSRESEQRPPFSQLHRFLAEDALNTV

Legend:
Assay in all cases: number of time points (of 5) at which kinase-Nluc abundance scored as decreased, DMSO-normalised (count); higher = more persistent destabilization
[1] = compound: COc1ccc(-c2cc3nccn3c(Nc3ncccc3C(N)=O)n2)cc1OC [BAY 61-3606 (dihydrochloride)]; details: 2.5 µM; K562; 2-18 h
[2] = compound: COc1ccc(CNC(=O)Nc2ncc([N+](=O)[O-])s2)cc1; details: 2.5 µM; K562; 2-18 h
[3] = compound: COc1nccc(-c2c(-c3ccc(F)cc3)ncn2C2CCNCC2)n1; details: 10 µM; K562; 2-18 h
HDACs/mTOR Inhibitor 1 = compound: C[C@@H]1CN(C(=O)Nc2ccc(-c3nc(N4CCOCC4)c4cnn(CCCCCCC(=O)NO)c4n3)cc2)CCO1 [HDACs/mTOR Inhibitor 1]; details: 10 µM; K562; 2-18 h
Quercitrin = compound: C[C@@H]1O[C@@H](Oc2c(-c3ccc(O)c(O)c3)oc3cc(O)cc(O)c3c2=O)[C@H](O)[C@H](O)[C@H]1O [Quercitrin]; details: 10 µM; K562; 2-18 h
[4] = compound: C[C@@]1(C(=O)Nc2ccc(F)nc2)CCCN1c1nc(Nc2cc(C3CC3)n[nH]2)c2cccn2n1; details: 10 µM; K562; 2-18 h
Fenebrutinib = compound: C[C@H]1CN(C2COC2)CCN1c1ccc(Nc2cc(-c3ccnc(N4CCn5c(cc6c5CC(C)(C)C6)C4=O)c3CO)cn(C)c2=O)nc1 [Fenebrutinib]; details: 10 µM; K562; 2-18 h

Measured: number of time points

TYK2 (UniProt P29597)
1: [4]
0: all other assays above

IRAK3 (UniProt Q9Y616)
2: [1]
0: all other assays above

RIPK1 (UniProt Q13546)
0: all assays above

CSK (UniProt P41240)
0: all assays above

CDK3 (UniProt Q00526)
0: all assays above

RIOK1 (UniProt Q9BRS2)
0: all assays above

BRAF (UniProt P15056)
0: all assays above

AURKB (UniProt Q96GD4)
0: all assays above

PTK2B (UniProt Q14289)
0: all assays above

GSK3A (UniProt P49840)
1: HDACs/mTOR Inhibitor 1
0: all other assays above

BTK (UniProt Q06187)
0: all assays above

PAK4 (UniProt O96013)
0: all assays above

RPS6KA1 (UniProt Q15418)
0: all assays above

PLK1 (UniProt P53350)
1: HDACs/mTOR Inhibitor 1
0: all other assays above

ZAP70 (UniProt P43403)
0: all assays above

PTK2 (UniProt Q05397)
0: all assays above

ERBB4_R711C (clone: ERBB4_mut) (UniProt Q15303)
2: [4]
0: all other assays above

MAP4K2 (UniProt Q12851)
0: all assays above

EGFR_G719S_T790M (UniProt P00533)
not listed: [2] | [3]
0: all other assays above

MKNK1 (UniProt Q9BUB5)
0: all assays above

LCK (UniProt P06239)
not listed: [4]
0: all other assays above

FGFR1 (UniProt P11362)
not listed: [4]
0: all other assays above

NTRK3 (UniProt Q16288)
not listed: [4]
0: all other assays above

AURKA (UniProt O14965)
not listed: HDACs/mTOR Inhibitor 1
0: all other assays above

FLT3 (UniProt P36888)
not listed: [4]
0: all other assays above

SRC (UniProt P12931)
not listed: [4]
0: all other assays above

RET_M918T (clone: RET_mut) (UniProt P07949)
not listed: [1] | [4]
0: all other assays above

CSF1R (UniProt P07333)
not listed: [4]
0: all other assays above

EGFR_L861Q (UniProt P00533)
not listed: [2] | [3]
0: all other assays above

EPHA2 (UniProt P29317)
not listed: [4]
0: all other assays above

EGFR_G719S (UniProt P00533)
not listed: [2] | [3]
0: all other assays above

MAPK1 (UniProt P28482)
0: all assays above

BLK (UniProt P51451)
0: HDACs/mTOR Inhibitor 1 | Quercitrin | [4] | Fenebrutinib

ERN1 (UniProt O75460)
0: all assays above

FGFR2 (UniProt P21802)
not listed: [4]
0: all other assays above

EGFR_T790M (UniProt P00533)
not listed: [2] | [3]
0: all other assays above

ZAK (UniProt Q9NYL2)
not listed: [1] | [3]
0: all other assays above

CSNK1D (UniProt P48730)
not listed: [2]
0: all other assays above

RET (UniProt P07949)
not listed: [1] | [4]
0: all other assays above

EGFR_L718V (UniProt P00533)
not listed: [2] | [3]
0: all other assays above

EGFR (UniProt P00533)
not listed: [2] | [3]
0: all other assays above

FGFR3 (UniProt P22607)
not listed: [4]
0: all other assays above

ALK (UniProt Q9UM73)
not listed: [4]
0: all other assays above

EGFR_L858R (UniProt P00533)
not listed: [2] | [3]
0: all other assays above

AURKC (UniProt Q9UQB9)
not listed: Quercitrin
0: all other assays above

DDR1 (UniProt Q08345)
not listed: [4]
0: all other assays above

MAP2K1 (UniProt Q02750)
0: all assays above

STK38 (UniProt Q15208)
0: all assays above

PDK1 (UniProt Q15118)
1: HDACs/mTOR Inhibitor 1
0: all other assays above

CDK5 (UniProt Q00535)
1: HDACs/mTOR Inhibitor 1
0: [2] | Quercitrin | [4] | Fenebrutinib
